# Laboratory results: the supplement of paper PMC9226226
# Values joined by “and” are separate entries in the source; they are usually repeats but may differ in a detail not shown here. Equal values may be shown once. Some of the results follow. Some well-known active drugs show little effect in this data set, so a weak value is uncertain.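 Human mesenchymal stem cells lacking the Werner syndrome gene, which age prematurely, were used. Automated live-cell imaging tracked growth across three biological repeats; the twenty drugs raising growth most relative to vehicle advanced, without a stated fixed cutoff.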 Numbered stars: 1 amine (or outer) side, 2 acyl side, 3 side chain; on linkers, the order of the positions; unused ones are H or OH. Bridge positions count the residues as written; N and C are the ends. Square brackets hold non-standard residues; d marks the D form. Peptide text beside a SMILES is read from it. * marks the point of attachment. pTerphenylCO(4''-OnC5H11) = CCCCCOc1ccc(-c2ccc(-c3ccc(C(=O)*)cc3)cc2)cc1; Orn(4R-OH,5R-OH) = O=C([C@H](C[C@@H](O)[C@@H](O)N[*:3])N[*:1])[*:2]; hTyr(3S-OH,4S-OH) = N[C@H](C(=O)O)[C@H](O)[C@@H](O)c1ccc(O)cc1; Pro(3S-OH,4S-Me) = C[C@H]1CN[C@H](C(=O)O)[C@H]1O; Hyp = O=C(O)[C@@H]1C[C@@H](O)CN1
# Tested on: Werner syndrome hMSCs (WRN-/-)
# Assay: relative cell density (fold change vs vehicle control); higher = more proliferation (geroprotective)
# Details: concentration (umol/L): 1, 6 days
Compound,relative cell density (vehicle: DMSO),relative cell density (vehicle: Water)
"CCCCCOc1ccc(-c2ccc(-c3ccc(C(=O)N[C@H]4C[C@@H](O)[C@@H](O)NC(=O)[C@@H]5[C@@H](O)[C@@H](C)CN5C(=O)[C@H]([C@@H](C)O)NC(=O)[C@H]([C@H](O)[C@@H](O)c5ccc(O)cc5)NC(=O)[C@@H]5C[C@@H](O)CN5C(=O)[C@H]([C@@H](C)O)NC4=O)cc3)cc2)cc1 ({pTerphenylCO(4''-OnC5H11)}-[Orn(4R-OH,5R-OH)]T[Hyp][hTyr(3S-OH,4S-OH)]T[Pro(3S-OH,4S-Me)]; lactam 1-C)",0.942,
CC(C)c1nc(N(C)S(C)(=O)=O)nc(-c2ccc(F)cc2)c1/C=C/[C@@H](O)C[C@@H](O)CC(=O)O,1.06,
CCCOC(C(=O)OC1CCN(C)CC1)(c1ccccc1)c1ccccc1,1.1,
CCOCCn1c(C2CCN(CCc3ccc(C(C)(C)C(=O)O)cc3)CC2)nc2ccccc21,,0.941
CCN(CC)CCCC(C)Nc1ccnc2cc(Cl)ccc12 (stereo not given),,0.698
CS(=O)(=O)c1ccc([C@@H](O)[C@@H](CF)NC(=O)C(Cl)Cl)cc1,0.936,
C[C@@H](O)[C@H]1C(=O)N2C(C(=O)O)=C(SCCNC=N)C[C@H]12,,0.934
c1ccc2c(c1)CCCC2C1=NCCN1 (stereo not given),1.03,
COc1cccc(CCc2ccccc2OCC(CN(C)C)OC(=O)CCC(=O)O)c1 (stereo not given),1,
CC(C)OC(=O)C(C(=O)OC(C)C)=C1SC=CS1,1.14,
C1N2CN3CN1CN(C2)C3,1.01,
CCCCCN(C)CCC(O)(P(=O)(O)O)P(=O)(O)O,,0.807
N[C@@H](CS)C(=O)O,1.32,
CCOC(=O)N1CCC(=C2c3ccc(Cl)cc3CCc3cccnc32)CC1,1.08,
Nc1nc(F)nc2c1ncn2[C@@H]1O[C@H](COP(=O)(O)O)[C@@H](O)[C@@H]1O,0.958,
CNC[C@H](O)[C@@H](O)[C@H](O)[C@H](O)CO.CNC[C@H](O)[C@@H](O)[C@H](O)[C@H](O)CO.O=C([O-])CN(CCN(CC(=O)[O-])CC(=O)O)CCN(CC(=O)[O-])CC(=O)O.[Gd+3],1.34,
COc1ccc(CC(C)NCC(O)c2ccc(O)c(NC=O)c2)cc1 (stereo not given),1.25,
CC(C)C[C@H](NC(=O)[C@H](Cc1ccccc1)NC(=O)c1cnccn1)B(O)O,0.216,
CS(=O)(=O)c1ccc(C(=O)Nc2ccc(Cl)c(-c3ccccn3)c2)c(Cl)c1,1.3,
Oc1c(Br)cc(Br)c2cccnc12,0.0845,
C[C@H](N[C@@H](CCc1ccccc1)C(=O)O)C(=O)N1CCC[C@H]1C(=O)O,0.748,
NC(=O)N1CCC(CC(=O)N2CCC([C@H]3c4ncc(Br)cc4CCc4cc(Cl)cc(Br)c43)CC2)CC1,0.624,
COCCCC/C(=N\OCCN)c1ccc(C(F)(F)F)cc1,1.11,

Compound,relative cell density (vehicle: DMSO),relative cell density (vehicle: Water)
COC(=O)[C@H](c1ccccc1Cl)N1CCc2sccc2C1,0.928,
CCCSc1ccc2[nH]c(NC(=O)OC)nc2c1,0.357,
Cc1c(Cl)cccc1Nc1ccccc1C(=O)O,1.36,
CC=C(C)C(=O)OC1C(OC(C)=O)C2(CO)C(O)CC3(C)C(=CCC4C5(C)CCC(OC6OC(C(=O)O)C(OC7OC(CO)C(O)C(O)C7O)C(O)C6OC6OC(CO)C(O)C(O)C6O)C(C)(CO)C5CCC43C)C2CC1(C)C (stereo not given),0.0072,
CO[C@H]1/C=C/O[C@@]2(C)Oc3c(C)c(O)c4c(O)c(c(/C=N/N5CCN(C)CC5)c(O)c4c3C2=O)NC(=O)/C(C)=C\C=C\[C@H](C)[C@H](O)[C@@H](C)[C@@H](O)[C@@H](C)[C@H](OC(C)=O)[C@@H]1C,0.918,
Cc1c(C(C)C)c(=O)n(-c2ccccc2)n1C,1.3,
CCc1ccc(CCOc2ccc(CC3SC(=O)NC3=O)cc2)nc1 (stereo not given),1.27,
CNC[C@@H](O)c1ccc(O)c(O)c1,1.18,
CC(C)Nc1cc(-c2c[nH]c(C(=O)N[C@H](CO)c3cccc(Cl)c3)c2)c(Cl)cn1,0.738,
Cc1ccc(N(CC2=NCCN2)c2cccc(O)c2)cc1,1.31,
Clc1ccc2c(c1)C(N1CCNCC1)=Nc1ccccc1O2,,1.18
O=C1c2ccccc2C(=O)C1c1ccccc1,1.35,
O=C(Cn1ccnc1[N+](=O)[O-])NCc1ccccc1,1.05,
O=C(c1cc(Cc2n[nH]c(=O)c3ccccc23)ccc1F)N1CCN(C(=O)C2CC2)CC1,0.692,
O=C(O)CCc1nc(-c2ccccc2)c(-c2ccccc2)o1,1.16,
CC(C)(Oc1ccc(CCNC(=O)c2ccc(Cl)cc2)cc1)C(=O)O,0.801,
OCCN1CCN(CCCN2c3ccccc3Sc3ccc(C(F)(F)F)cc32)CC1,1.25,
c1ccc(CC2=NCCN2)cc1,1.24,
COc1cccc(-c2c(C)n(Cc3c(F)cccc3C(F)(F)F)c(=O)n(C[C@H](NCCCC(=O)O)c3ccccc3)c2=O)c1F,1.24,
CC(C(=O)O)c1ccc(CC2CCCC2=O)cc1 (stereo not given),1.22,
CC[C@H]1OC(=O)[C@H](C)[C@@H](O[C@H]2C[C@@](C)(OC)[C@@H](O)[C@H](C)O2)[C@H](C)[C@@H](O[C@@H]2O[C@H](C)C[C@H](N(C)C)[C@H]2O)[C@](C)(O)C[C@@H](C)C(=O)[C@H](C)[C@@H](O)[C@]1(C)O,0.923,
Nc1c(CC(=O)O)cccc1C(=O)c1ccccc1,1.26,
CCCCOCCOCCOCc1cc2c(cc1CCC)OCO2,1.01,

Compound,relative cell density (vehicle: DMSO),relative cell density (vehicle: Water)
CC(=O)Oc1ccccc1C(=O)Nc1ncc([N+](=O)[O-])s1,1.04,
O=C(O)c1cn(-c2ccc(F)cc2)c2cc(N3CCNCC3)c(F)cc2c1=O,,1.05
C[C@@H]1C[C@H]2[C@@H]3C[C@H](F)C4=CC(=O)C=C[C@]4(C)[C@@]3(F)[C@@H](O)C[C@]2(C)[C@@]1(O)C(=O)CO,0.845,
O=C(NC[C@H]1CN(c2ccc(N3CCOCC3=O)cc2)C(=O)O1)c1ccc(Cl)s1,0.975,
Cc1nnc(C(=O)NC(C)(C)c2nc(C(=O)NCc3ccc(F)cc3)c(O)c(=O)n2C)o1,1.11,
CCOC(=O)[C@@H](N)Cc1ccc(-c2cc(O[C@H](c3ccc(Cl)cc3-n3ccc(C)n3)C(F)(F)F)nc(N)n2)cc1,0.952,
COc1c2occc2cc2ccc(=O)oc12,1.08,
N=C(NCCCCCCNC(=N)NC(=N)Nc1ccc(Cl)cc1)NC(=N)Nc1ccc(Cl)cc1,1.11,
CN1CCN(C2=Nc3ccccc3Oc3ccc(Cl)cc32)CC1,1.29,
Clc1ccc(CCC(Cn2ccnc2)Sc2c(Cl)cccc2Cl)cc1 (stereo not given),1.21,
N#Cc1ccc(C(c2ccc(C#N)cc2)n2cncn2)cc1,0.942,
C[N+]1(C)CCC(OC(=O)C(O)(c2ccccc2)C2CCCC2)C1 (stereo not given),1.49,
NC(=O)CCC(N)C(=O)O (stereo not given),,0.939
C#Cc1cccc(Nc2ncnc3cc(OC)c(OCCCCCCC(=O)NO)cc23)c1,0.496,
CC(=O)S[C@@H]1CC2=CC(=O)CC[C@]2(C)[C@H]2CC[C@@]3(C)[C@@H](CC[C@@]34CCC(=O)O4)[C@H]12,0.874,
CCCc1cc(C(N)=S)ccn1,1.01,
CO[C@H]1/C=C/O[C@@]2(C)Oc3c(C)c(O)c4c(O)c(c(/C=N/N5CCN(C6CCCC6)CC5)c(O)c4c3C2=O)NC(=O)/C(C)=C\C=C\[C@H](C)[C@H](O)[C@@H](C)[C@@H](O)[C@@H](C)[C@H](OC(C)=O)[C@@H]1C,1,
N=C(N)NC(=N)NCCc1ccccc1,1.09,
CN1CCC(=C2c3ccccc3C=Cc3ccccc32)CC1,0.96 and 1.29,
CC(C)Oc1ccc(-c2nc(-c3cccc4c3CC[C@@H]4NCCO)no2)cc1C#N,1.02,
CC[C@H]1[C@@H](O)[C@@H]2[C@H](CC[C@]3(C)[C@@H]([C@H](C)CCC(=O)O)CC[C@@H]23)[C@@]2(C)CC[C@@H](O)C[C@@H]12,0.969,
CNC1CCCN(c2c(F)cc3c(=O)c(C(=O)O)cn(C4CC4)c3c2OC)C1 (stereo not given),1.16,
C[C@H]1O[C@H](O[C@H]2[C@H](O)[C@@H](O)[C@@H](O[C@H]3[C@H](O)[C@@H](O)C(O)O[C@@H]3CO)O[C@@H]2CO)[C@H](O)[C@@H](O)[C@@H]1N[C@H]1C=C(CO)[C@@H](O)[C@H](O)[C@H]1O (stereo not given in full),1.04,

Compound,relative cell density (vehicle: DMSO),relative cell density (vehicle: Water)
Cc1cn[nH]c1,1.06,
OCCN1CCN(CC/C=C2/c3ccccc3Sc3ccc(C(F)(F)F)cc32)CC1,1.03,
C[C@@H](O)[C@H]1C(=O)N2C(C(=O)O)=C([C@H]3CCCO3)S[C@H]12,0.96,
N=C1CCCN1Cc1[nH]c(=O)[nH]c(=O)c1Cl,0.974,
Nc1[nH]cnc2ncnc1-2,1.14,
C[C@@H](NCCCc1cccc(C(F)(F)F)c1)c1cccc2ccccc12,0.911,
CC(=O)Nc1cccc(-n2c(=O)n(C3CC3)c(=O)c3c(Nc4ccc(I)cc4F)n(C)c(=O)c(C)c32)c1,0.45,
NCCc1c[nH]cn1,1.31 and 1.44,1.46
OC(Cn1cncn1)(Cn1cncn1)c1ccc(F)cc1F,1.05,
CC(C)c1c(C(=O)Nc2ccccc2)c(-c2ccccc2)c(-c2ccc(F)cc2)n1CC[C@@H](O)C[C@@H](O)CC(=O)O,0.307,
Cc1ncc(C[n+]2csc(CCO)c2C)c(N)n1,,1.05
CCN[C@H]1CN(CCCOC)S(=O)(=O)c2sc(S(N)(=O)=O)cc21,1.46,
NS(=O)(=O)c1cc(C2(O)NC(=O)c3ccccc32)ccc1Cl (stereo not given),1.4,
O=C(O)CCCCCCCC(=O)O,1.31,
CC(=O)OCC(=O)[C@@]1(O)CC[C@H]2[C@@H]3CCC4=CC(=O)CC[C@]4(C)[C@@]3(F)[C@@H](O)C[C@@]21C,1.09,
FC(F)(F)C(Cl)Br (stereo not given),0.925,
Cc1ccc(C(=O)c2ccc(CC(=O)O)n2C)cc1,0.742,
O=C(O)c1cc(-c2ccccc2)nc2ccccc12,0.675,
CC(=O)O[C@]1(C(C)=O)CC[C@H]2[C@@H]3C[C@H](C)C4=CC(=O)CC[C@]4(C)[C@H]3CC[C@@]21C,1.09,
C[C@H]1CNCCCN1S(=O)(=O)c1cccc2cncc(F)c12,0.95,

# Quoted at random: three entries already listed.
Compound,relative cell density (vehicle: DMSO),relative cell density (vehicle: Water)
Cc1ncc(C[n+]2csc(CCO)c2C)c(N)n1,,1.05
COCCCC/C(=N\OCCN)c1ccc(C(F)(F)F)cc1,1.11,
c1ccc2c(c1)CCCC2C1=NCCN1 (stereo not given),1.03,
